Experimental data: PubChem BioAssay AID624098 (National Center for Advancing Translational Sciences (NCATS), 2012)
The shares of active, inactive and inconclusive entries below differ from those in the screen. Calls of active or inactive are those of the source.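 How the source made its calls: active means immobility above 50% at 10 µM after 1 hour; inconclusive means immobility from 15% to 50% at 1 hour; inactive means immobility below 15%.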

Assay: Assay for General Anesthetic Phenotype in Xenopus Tadpoles
Conditions: startle-response immobility, 1 h, at 10 µM, stronger effect = higher value
Description: Anesthetic development has remained a largely empirical process. There are growing concerns about the cognitive effects of known general anesthetics and acceleration of the onset of neurodegenerative disease. The compounds' toxicity and multiple specific binding targets in the mammalian brain [4] has made them less attractive as drug leads. This assay was designed for the in vivo follow-up testing of compounds in tadpoles. References: [1] S.L. Bianchi, T. Tran, C. Liu, S. Lin, Y. Li, J.M. Keller, R.G. Eckenhoff, and M.F. Eckenhoff, Brain and behavior changes in 12-month-old Tg2576 and nontransgenic mice exposed to anesthetics. Neurobiol Aging 29 (2008) 1002-10. Z. Xie, Y. Dong, U. Maeda, R.D. Moir, W. Xia, D.J. Culley, G. Crosby, and R.E. Tanzi, The inhalation anesthetic isoflurane induces a vicious cycle of apoptosis and amyloid beta-protein accumulation. J Neurosci 27 (2007) 1247-54. P. Honegger, and J.M. Matthieu, Selective toxicity of the general anesthetic propofol for GABAergic neurons in rat brain cell cultures. J Neurosci Res 45 (1996) 631-6. M.F. Eckenhoff, K. Chan, and R.G. Eckenhoff, Multiple specific binding targets for inhaled anesthetics in the mammalian brain. J Pharmacol Exp Ther 300 (2002) 172-9. C.A. Butts, J. Xi, G. Brannigan, A.A. Saad, S.P. Venkatachalan, R.A. Pearce, M.L. Klein, R.G. Eckenhoff, and I.J. Dmochowski, Identification of a fluorescent general anesthetic, 1-aminoanthracene. Proc Natl Acad Sci U S A 106 (2009) 6501-6. W.A. Lea, J. Xi, A. Jadhav, L. Lu, C.P. Austin, A. Simeonov, and R.G. Eckenhoff, A high-throughput approach for identification of novel general anesthetics. PLoS One 4 (2009) e7150.
Pre-limb bud Xenopus tadpoles were obtained in large batches from Nasco, Inc. Batches of 10 tadpoles were placed in 20 mm Petri dishes with approximately 20 ml of pond water ("pond water" is approximately a 20-fold dilution of Ringers saline solution). Compounds were added to the pond water from DMSO stock to obtain 100, 10 and 1 microM concentrations. Tadpoles were then incubated with these solutions for 1 hour, and then scored for "anesthesia". Anesthesia in this case is lack of movement in response to a sharp tap on the Petri dish lid, i.e., a lack of startle response. This correlates well to the loss of righting reflex in rodents and the loss of consciousness in humans. The pond water is then changed, and the return of a startle response is monitored for 24 hours. Immobility at 24 hours is considered death.

Row | Structure (SMILES) | immobility
1 | COc1ccc(-c2ccc(=O)n(CC(=O)NCCc3ccccc3)n2)cc1 | active: 75%
2 | CC(C)Oc1ccc(-c2ccc(=O)n(CC(=O)NCCc3ccccc3)n2)cc1 | active: 95%
3 | O=C(Cn1nc(C2CCCCC2)ccc1=O)NCCc1ccccc1 | inconclusive: 40%
4 | O=C(Cn1nc(-c2ccc3c(c2)OCO3)ccc1=O)NCCc1ccccc1 | inactive: 0%
5 | O=C(Cn1nc(-c2ccccc2)ccc1=O)NCCc1ccccc1 | inconclusive: 20%
6 | COc1cccc(-c2ccc(=O)n(CC(=O)NCCc3ccccc3)n2)c1 | inconclusive: 30%
7 | Cc1cccc(-c2ccc(=O)n(CC(=O)NCCc3ccccc3)n2)c1 | inconclusive: 20%
8 | COc1ccc(-c2ccc(=O)n(CC(=O)NCCc3ccccc3)n2)cc1OC | inactive: 10%
